From publication PMC6821156
No constants are given. Whether binding was seen depends on the method and setting. In cells and extracts the contact can be indirect. Here binding means that the protein was enriched with, or labelled near, the bait; the list need not be complete. Sequences can lack the tags named with a protein.

Amino acid sequences for entries named in this document (tags omitted).
UniProt P26369: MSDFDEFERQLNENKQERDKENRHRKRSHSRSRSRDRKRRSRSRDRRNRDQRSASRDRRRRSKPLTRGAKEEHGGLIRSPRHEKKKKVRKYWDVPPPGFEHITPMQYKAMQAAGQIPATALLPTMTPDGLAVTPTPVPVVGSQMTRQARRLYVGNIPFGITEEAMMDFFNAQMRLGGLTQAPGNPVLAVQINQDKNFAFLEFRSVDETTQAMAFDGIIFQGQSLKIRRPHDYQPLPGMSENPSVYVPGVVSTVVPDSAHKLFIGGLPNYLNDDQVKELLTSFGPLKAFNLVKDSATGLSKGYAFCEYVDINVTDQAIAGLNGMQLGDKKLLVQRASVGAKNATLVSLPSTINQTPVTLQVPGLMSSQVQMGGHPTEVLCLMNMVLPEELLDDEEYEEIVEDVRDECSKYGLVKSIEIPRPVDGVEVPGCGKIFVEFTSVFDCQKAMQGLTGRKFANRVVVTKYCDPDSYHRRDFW

Molecular target: T1, Flag-tagged U2AF1a (endogenous, U2af1a-only Tsc1-/- MEF cell line) (mouse (endogenous in Tsc1-/- MEFs)) (UniProt Q9D883)
T1 sequence: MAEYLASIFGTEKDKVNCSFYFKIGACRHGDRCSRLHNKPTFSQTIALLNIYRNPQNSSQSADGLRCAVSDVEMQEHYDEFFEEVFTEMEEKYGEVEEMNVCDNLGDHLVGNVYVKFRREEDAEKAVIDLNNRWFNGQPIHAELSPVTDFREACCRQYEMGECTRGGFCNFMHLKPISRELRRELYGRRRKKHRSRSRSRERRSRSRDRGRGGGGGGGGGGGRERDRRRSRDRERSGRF
Assay: affinity purification with mass spectrometry; cells cross-linked with 0.2% formaldehyde for 10 min; lysis buffer with 300 mM NaCl, 0.5% Empigen, 0.5% NP-40; anti-Flag M2 magnetic beads, in the presence of RNase A, eluted with 3x Flag peptide; label-free quantification against a control Flag-IP

- binding: binds
Substance: U2AF2 (from UniProt P26369 1-475)
